Laboratory results taken from the supplement of paper PMC3334620.
Whole data set: some 33,000 sequences, median “E-score (-0.5 to 0.5)” near -8e-05, cut for the highest 2% near 0.23. The list shows a part of the results.

target: T1, Nrg2 (UniProt P38082); experiment: PBM E-score (8-mer binding enrichment) (E-score (-0.5 to 0.5)); higher = stronger / more preferred TF binding; settings: protein concentration: 100 nM; construct: GST-full length
T1 sequence: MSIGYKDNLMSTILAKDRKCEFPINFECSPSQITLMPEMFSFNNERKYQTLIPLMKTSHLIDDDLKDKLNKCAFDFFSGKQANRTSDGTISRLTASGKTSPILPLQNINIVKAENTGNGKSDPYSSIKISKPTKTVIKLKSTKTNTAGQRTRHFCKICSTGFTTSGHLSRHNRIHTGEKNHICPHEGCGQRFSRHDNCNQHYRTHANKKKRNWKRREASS
Outline: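 Using PURExpress in vitro transcription/translation, GST-tagged yeast transcription factors were made in full-length or DNA-binding-domain form. These were applied at about 100-200 nM to double-stranded universal all-10-mer Agilent arrays, and bound protein was detected with fluorescent anti-GST. Scans were normalised with masliner before the Universal PBM Analysis Suite assigned E-scores to ungapped eight-base words pooled with their reverse complements.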

Sequence | PBM E-score
AGGGGGGC | -0.351
ATTTACAA | 0.0879
ATAACTTG | 0.0563
TCCGTCAA | 0.0779
AATAACCG | -0.0154
AATTTCAG | 0.029
CCTTGCCC | 0.131
AAAACTTA | 0.0488
AGCCAAGG | 0.201
TACATATA | 0.111
CCATCTTC | -0.015
TCACAGGA | 0.0134
TGTTGTAA | 0.102
AGACTAGA | -0.328
ACACCAAC | -0.137
GGTCCGAA | 0.225
ACGCTACA | 0.11
GCGGAACC | 0.112
CAACGTGA | -0.129
CCCGAGTC | -0.117
CCGCGCCG | -0.0754
ATGATGCG | 0.0752
TACGTTCA | 0.00829
CACACCAC | 0.175
AATCCTTC | -0.215

Sequence | PBM E-score
ATGCGCGG | 0.121
AAACTGCG | -0.0689
GTTTGTTA | 0.0909
ATGGCAGA | 0.145
ATTGATCG | 0.103
CACGTACG | -0.0872
TGAGAGAA | -0.00484
AGACGGTC | -0.129
ATAGCGAA | 0.135
GTCACAGA | 0.136
CAACTCGC | 0.186
CCCTCTAA | -0.229
ACCTAGAT | 0.00889
CGTCCGTA | -0.106
CAACAATC | 0.168
CTTGTCCA | 0.0618
CTTATTTA | 0.0567
TAGGCCGA | -0.0619
GCACCGGA | -0.167
CCAATACC | 0.0351
AAAAGGTC | -0.12
CTGTTTTA | 0.118
CAACATGC | 0.0729
CGAGTGGA | -0.0407
CGGCGCGC | 0.256

Sequence | PBM E-score
ATCCAAAC | 0.184
AGATTCAC | -0.202
AACCAGCC | -0.0847
ACGTGTTC | -0.115
TACGCTAA | 0.0824
TATATGGA | 0.0065
CAAAAAAA | 0.245
CATCAGCG | -0.213
AGTTCCAC | 0.0885
ACCTTCCT | -0.227
CCGTAGAC | -0.0815
AACCCCTC | -0.0867
CAATAACG | 0.152
TCTGTGAA | 0.0963
CCCGATAA | -0.109
GTATTGCA | -0.0204
TATATTCA | 0.225
CCAAGTGG | 0.0232
CGCTCGGA | 0.0984
TAGTACCA | -0.0772
CAGTTATA | 0.114
CAGTCGTC | -0.195
CATCGAGC | 0.0814
CTCCGGTC | -0.0492
GAATGGCC | -0.0655

Reformatted as labelled records: entries from further up
ATCCAAAC
  PBM E-score: 0.184
AGATTCAC
  PBM E-score: -0.202
AACCCCTC
  PBM E-score: -0.0867
TCTGTGAA
  PBM E-score: 0.0963

Remaining list, next part.

Sequence | PBM E-score
CCTCCTGA | -0.183
CTACTTAA | -0.136
CATTCAAG | 0.135
GAGTATGC | 0.115
AGTCCTAG | -0.221
CCTCCGTA | -0.0868
GACACGTA | -0.199
GGCTCACA | -0.0681
AGCGTCTC | -0.0438
AAGGACCG | 0.011
CATGTCGG | 0.0655
CAGCGTAG | -0.0519
ACTTGACC | -0.104
ACCGTGAC | -0.161
AAAAATGG | 0.129
TCCATACA | 0.0616
CGTGGTAC | -0.172
TATTTCCA | 0.0167
AAGCGTTG | 0.0514
AGGAGAGC | -0.332
CTATAGCA | 0.0908
CGGAGCCC | -0.257
AGAAGACA | 0.0609
ATACAGTA | 0.0537
CAGCCGCG | 0.0167

Sequence | PBM E-score
CCGGGCAG | -0.164
AGACATAC | 0.0174
AGAGGCAT | -0.0394
CGGATTTA | 0.0741
CCAGCAAC | -0.00319
GAATGTTA | 0.134
AGTGTGAA | 0.186
AGCGTCCG | -0.159
AAAGAGAC | 0.0466
ATGCATCG | 0.0353
ACGGCGAC | 0.135
AATTTAGG | 0.117
AAGCATAA | -0.00973
GATGCTAA | 0.149
ACTCCGGC | 0.00303
ATCGTAGC | 0.0886
GACAACTA | 0.158
AGCGTATC | -0.0443
CGTAGGCC | -0.141
GCCCTCGA | -0.113
ACCAGCAA | 0.245
CTACCCTC | 0.103
ACGAGCCT | -0.18
AGCTAGAC | -0.15
GATTGGCA | -0.0954

Sequence | PBM E-score
TCAATCCA | 0.0713
ATGGGTTG | 0.181
CTAAGCAG | -0.148
GCACCCAA | -0.0969
GTCATGTA | -0.264
GCGATCAA | 0.0144
ATGAGATA | 0.178
CCGGTCCG | -0.199
TCCGAGGA | -0.0861
CCCGTCTC | -0.166
GGACTTAC | -0.0923
TCCGATCA | 0.0427
GTCAGTGA | 0.128
CACTACGG | 0.151
ACGACGGC | 0.0416
ACATATAT | 0.0966
ACTTTGCC | 0.15
AGTGACGG | 0.0699
GTATATAA | 0.178
ATTGGACG | 0.00042
AGAGAAAA | 0.12
ATTTCGGC | 0.145
CCCTTTGC | 0.131
CAGCTGCC | -0.0817
AGTGTTTA | 0.185

Sequence | PBM E-score
AGCCAAGA | -0.128
AACTTAGC | -0.0853
ACAATCCA | 0.129
AGATAAAG | 0.0224
ACACGAGC | -0.065
ATGACTCG | -0.164
GGATTGCC | -0.0463
ATTTAAAT | 0.213
CAAGCATG | 0.00246
AATCGGGC | -0.127
CAATTCAA | 0.063
ACCTTAAT | 0.0828
CTAACGGC | -0.124
CGACGGGC | 0.0686
CATTCGCG | 0.212
ATTTAAAG | 0.14
AATAAGGA | 0.0295
ACTTCACT | 0.0973
AGTTGGCA | 0.1
GTGATAGA | -0.099
GCAATGAA | 0.183
GCGGAAGC | -0.114
CTGGGACC | -0.154
CCGCGATC | 0.193
ACTGTGAC | 0.153

Sequence | PBM E-score
GGCAAGCA | -0.089
AACCATAG | -0.0803
CTGCTCAA | -0.0801
CATTCCAC | 0.0538
GGCTTAGA | -0.18
AACTCCAG | -0.157
CTTAGTTA | 0.0769
ACAGTCGG | 0.0105
ATCCAAGG | 0.0536
GGATGACA | 0.184
AGTCCTAA | -0.197
TAACACGA | 0.121
TGGACTAA | -0.00284
AGCAAAAA | -0.00398
ACACACGT | -0.123
ACGTAATC | -0.00194
CTTCCGTA | 0.021
CAATGTCA | 0.0853
ACTATCGG | 0.117
TCACGGCA | 0.0508
CCGAGGCG | -0.0306
ACCCCTGA | 0.297
AACCCCGG | 0.0231
ATGGATTC | 0.12
CCACATCA | 0.051

Sequence | PBM E-score
ACTCTGTG | 0.139
AAAAAAGT | -0.0844
CTGTAACA | -0.17
AATTGAGT | 0.245
CGGTGCCC | -0.0794
AAGGTCAT | -0.0674
CAGATCGC | 0.0885
GGGTCACC | -0.261
ATATCCCC | 0.125
AGCGGGAG | -0.0835
AGGGCTAC | -0.156
ATGGGTCC | 0.0519
AGCAGCTC | -0.0406
CTTGGTCA | 0.138
GCACGCTA | -0.134
GCGGAAGA | 0.104
CGCTCATC | -0.0595
ATTAGGTG | -0.0449
ACAGCTAA | -0.0719
ACCTGGTA | -0.25
GAAAAGCC | 0.0239
ATCATACA | 0.0993
ATCATTAG | 0.155
GAACAAGC | 0.0576
CGCGTGTC | 0.084

Sequence | PBM E-score
TATGGGCA | 0.0362
GCGGCCCC | -0.182
TGTTTAAA | 0.0709
AGGTCAGG | 0.0559
ATCTGGAC | -0.108
ATTTTAGC | -0.0155
GGATTTCA | 0.0791
CACCTGTC | 0.0208
AGCACTCC | -0.0037
GGTATTCA | 0.151
GTCTTATA | -0.0242
ACAGGGCA | 0.195
CAGATAAG | -0.181
GTCCCGCA | -0.142
GCGCTGCA | 0.11
CTGGAACA | 0.147
CGCGCTGC | 0.0564
CCCGCTGC | -0.13
AGTCACTC | 0.0207
AGTTGATA | 0.0603
CTGAACAG | 0.0872
GACTCACA | 0.0103
CTCGATCA | 0.0432
ACGCGAAA | 0.242
ATCTAGTC | 0.0247

Sequence | PBM E-score
CGTTATGA | -0.026
CGTCCTCC | -0.0951
AGCTAAAC | 0.0638
AAACTTAC | 0.0264
AAAACTGT | 0.163
CTGACGAA | 0.208
AGAGTCGA | -0.0481
GACGCTAA | -0.148
GCACTGCA | 0.062
CCCCACCA | 0.104
ATGGGATC | -0.0552
ACGGTCCC | -0.00846
AGCAAACC | 0.168
CGGTCACG | -0.162
GCCGGCTA | -0.145
TGCTCACA | -0.00909
AGTGTTTC | -0.00327
AGTTGAAC | -0.0293
AAGAATAC | 0.0535
ATACTCGG | 0.139
ACGAGGCG | 0.139
GACAATTA | 0.139
CGGAGTAG | -0.0833
CCGAGGAG | -0.201
AGATAGCT | -0.00288

In another format: results already given.
Sequence	PBM E-score
CGGTCACG	-0.162
GCCGGCTA	-0.145

Continued:

Sequence | PBM E-score
ACGAACAA | 0.124
AATTAGGG | 0.00357
ACTGTGTC | 0.012
CGGGGACG | -0.0177
CACGCACA | 0.149
GCCACACA | 0.0223
GAAGAATA | -0.163
AGTGTAAC | -0.00932
ACAATCAC | 0.0749
AGGGAGCC | -0.3
CAATGGTA | -0.0105
CTGGCTAA | -0.0584
GCAGGCGC | 0.0429
GCGCACGC | -0.0951
ATTCGAAC | 0.155
GTCGGGGA | 0.0523
GACTCTGA | 0.0315
CGCCCCCG | -0.307
ACTTACGC | -0.117
TGGATGAA | 0.0685
AAGGCCCC | -0.1
GCGAGGCC | -0.0319
ACCAACCG | -0.0193
GACCAGAA | 0.0774
GGGCCTTA | -0.0158

Sequence | PBM E-score
ACGAATAA | 0.186
GCCGGGCC | -0.237
TCCTTGCA | -0.0897
AGCCCCCA | -0.348
GTTTCGAA | 0.0673
AGGTCTCG | -0.205
GCAGAACA | 0.152
GTACGAAC | 0.127
AAATGATT | 0.214
AGATATCC | 0.209
ATGTCAGA | -0.107
AGCGAACA | 0.0707
ACGATCGC | 0.132
TCCGTGAA | -0.0299
CTACTGGA | -0.0857
ACCCCCTA | -0.391
CACTTGAG | -0.111
GTAAAGGA | -0.115
AGGGACAA | 0.228
TAAGAGCA | 0.0463
CCAAGGCC | -0.0751
ATGAGTGG | -0.00554
GCTTAGAC | 0.0132
GCGAATCA | 0.187
CCCCTGGA | 0.0369

Sequence | PBM E-score
ACGCGCAT | 0.098
CAATAAAG | 0.0476
CACGAACA | 0.071
CATGTATA | -0.0179
CGCCGGGA | -0.199
GCGCTCCC | 0.00196
ATGTTTGA | 0.0145
TCCTGGCA | 0.00481
ATGCTGTG | -0.0153
ATAACGTA | 0.179
GCGGAATA | 0.0652
GCATGAAC | 0.0623
CGGCGTTC | -0.183
CCCGACGA | -0.00655
CCTAGTAG | -0.228
ATTGATAA | 0.0942
CCTGGTAA | 0.012
CAGATGGG | -0.0267
ACCATCGT | -0.156

4 successive records out of the list so far, for reference:
Sequence | PBM E-score
GCGGAATA | 0.0652
GCATGAAC | 0.0623
CGGCGTTC | -0.183
CCCGACGA | -0.00655
